Measured values reported in publication PMC7728445.
These are yes or no findings as the source states them, for the method shown. Binding seen in cells or lysates may run through a third protein. Some binding calls cover weakened binding; strength is not graded here.

By UniProt entry, the sequences of proteins in these tests, tags left out.
UniProt P08047: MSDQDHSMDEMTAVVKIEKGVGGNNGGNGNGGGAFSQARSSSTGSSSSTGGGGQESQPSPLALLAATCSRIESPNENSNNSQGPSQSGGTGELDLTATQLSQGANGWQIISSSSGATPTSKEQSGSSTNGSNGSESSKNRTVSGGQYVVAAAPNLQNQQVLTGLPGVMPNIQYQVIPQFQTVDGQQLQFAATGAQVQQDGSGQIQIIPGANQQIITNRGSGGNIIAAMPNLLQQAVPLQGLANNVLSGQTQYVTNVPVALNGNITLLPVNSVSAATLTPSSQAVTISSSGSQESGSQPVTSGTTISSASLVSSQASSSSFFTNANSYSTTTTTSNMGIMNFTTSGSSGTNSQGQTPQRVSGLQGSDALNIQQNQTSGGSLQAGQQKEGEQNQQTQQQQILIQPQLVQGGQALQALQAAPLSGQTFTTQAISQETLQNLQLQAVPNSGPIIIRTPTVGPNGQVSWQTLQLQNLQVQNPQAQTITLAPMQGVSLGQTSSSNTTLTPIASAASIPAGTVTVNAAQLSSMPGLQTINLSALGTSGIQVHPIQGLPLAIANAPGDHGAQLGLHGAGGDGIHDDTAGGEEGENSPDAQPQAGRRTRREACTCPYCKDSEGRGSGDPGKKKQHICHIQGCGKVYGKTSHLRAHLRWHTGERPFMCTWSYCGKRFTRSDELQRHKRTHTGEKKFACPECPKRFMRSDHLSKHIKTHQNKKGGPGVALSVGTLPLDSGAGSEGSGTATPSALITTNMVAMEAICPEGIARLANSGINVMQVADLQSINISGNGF
UniProt Q09472: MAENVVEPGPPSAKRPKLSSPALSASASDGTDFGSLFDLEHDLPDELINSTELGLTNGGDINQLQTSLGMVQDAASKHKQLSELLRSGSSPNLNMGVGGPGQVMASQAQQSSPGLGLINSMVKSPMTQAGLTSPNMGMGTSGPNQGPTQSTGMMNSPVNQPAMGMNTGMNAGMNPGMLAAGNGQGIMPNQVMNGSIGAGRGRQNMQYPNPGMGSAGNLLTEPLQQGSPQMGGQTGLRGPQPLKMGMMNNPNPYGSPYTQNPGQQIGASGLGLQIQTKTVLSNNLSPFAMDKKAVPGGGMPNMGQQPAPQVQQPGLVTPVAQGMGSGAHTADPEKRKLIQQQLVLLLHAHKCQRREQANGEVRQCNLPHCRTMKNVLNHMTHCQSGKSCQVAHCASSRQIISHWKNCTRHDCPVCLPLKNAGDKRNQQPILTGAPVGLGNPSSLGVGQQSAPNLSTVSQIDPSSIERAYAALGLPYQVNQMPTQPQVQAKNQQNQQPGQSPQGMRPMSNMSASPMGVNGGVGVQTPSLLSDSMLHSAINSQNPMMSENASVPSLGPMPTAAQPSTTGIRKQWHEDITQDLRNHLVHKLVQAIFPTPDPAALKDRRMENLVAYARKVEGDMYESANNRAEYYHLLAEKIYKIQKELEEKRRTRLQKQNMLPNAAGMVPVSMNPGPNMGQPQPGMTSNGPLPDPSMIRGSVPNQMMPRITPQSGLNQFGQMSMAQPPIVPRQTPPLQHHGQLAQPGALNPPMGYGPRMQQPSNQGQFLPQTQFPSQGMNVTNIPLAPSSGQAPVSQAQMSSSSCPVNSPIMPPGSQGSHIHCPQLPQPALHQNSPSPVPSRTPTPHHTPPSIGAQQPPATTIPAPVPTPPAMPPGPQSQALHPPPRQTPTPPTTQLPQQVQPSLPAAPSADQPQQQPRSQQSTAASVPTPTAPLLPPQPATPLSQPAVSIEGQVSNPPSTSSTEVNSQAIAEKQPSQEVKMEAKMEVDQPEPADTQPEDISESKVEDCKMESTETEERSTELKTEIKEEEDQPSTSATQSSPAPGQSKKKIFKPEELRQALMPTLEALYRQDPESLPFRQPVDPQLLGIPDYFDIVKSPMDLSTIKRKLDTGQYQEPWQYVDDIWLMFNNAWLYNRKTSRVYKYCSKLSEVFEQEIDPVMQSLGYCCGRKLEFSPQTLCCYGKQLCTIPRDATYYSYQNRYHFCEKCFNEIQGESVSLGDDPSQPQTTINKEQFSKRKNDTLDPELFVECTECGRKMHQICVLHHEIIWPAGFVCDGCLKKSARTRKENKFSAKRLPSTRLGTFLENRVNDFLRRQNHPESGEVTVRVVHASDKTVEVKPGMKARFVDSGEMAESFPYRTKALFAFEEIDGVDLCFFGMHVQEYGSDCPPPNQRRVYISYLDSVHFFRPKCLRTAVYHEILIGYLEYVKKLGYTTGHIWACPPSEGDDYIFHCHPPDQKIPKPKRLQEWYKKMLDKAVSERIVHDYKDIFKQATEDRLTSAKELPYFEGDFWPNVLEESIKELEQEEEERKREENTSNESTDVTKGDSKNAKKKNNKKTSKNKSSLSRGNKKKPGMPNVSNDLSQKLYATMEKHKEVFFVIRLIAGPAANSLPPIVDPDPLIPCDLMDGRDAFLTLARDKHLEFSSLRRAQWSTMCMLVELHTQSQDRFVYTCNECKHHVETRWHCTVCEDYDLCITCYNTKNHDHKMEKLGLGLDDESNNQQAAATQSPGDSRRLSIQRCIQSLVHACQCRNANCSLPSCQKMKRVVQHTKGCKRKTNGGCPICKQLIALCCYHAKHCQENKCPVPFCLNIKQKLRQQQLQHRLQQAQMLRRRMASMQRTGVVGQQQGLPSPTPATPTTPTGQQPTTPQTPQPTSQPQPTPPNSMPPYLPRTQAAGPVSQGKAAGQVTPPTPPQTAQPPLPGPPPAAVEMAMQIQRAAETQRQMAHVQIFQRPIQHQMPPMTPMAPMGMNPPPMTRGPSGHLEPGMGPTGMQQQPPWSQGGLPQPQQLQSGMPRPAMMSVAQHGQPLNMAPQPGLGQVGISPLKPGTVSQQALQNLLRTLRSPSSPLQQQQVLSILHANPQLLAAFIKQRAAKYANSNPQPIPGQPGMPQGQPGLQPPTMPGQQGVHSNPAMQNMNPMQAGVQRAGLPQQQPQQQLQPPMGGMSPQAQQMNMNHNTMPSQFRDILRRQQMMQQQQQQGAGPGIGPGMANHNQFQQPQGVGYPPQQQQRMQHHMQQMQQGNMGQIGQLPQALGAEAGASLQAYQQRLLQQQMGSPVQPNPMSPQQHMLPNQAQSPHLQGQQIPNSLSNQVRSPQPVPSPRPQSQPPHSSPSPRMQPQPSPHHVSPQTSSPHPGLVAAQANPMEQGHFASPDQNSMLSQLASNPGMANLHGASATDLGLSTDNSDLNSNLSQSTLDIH
UniProt Q96KQ7: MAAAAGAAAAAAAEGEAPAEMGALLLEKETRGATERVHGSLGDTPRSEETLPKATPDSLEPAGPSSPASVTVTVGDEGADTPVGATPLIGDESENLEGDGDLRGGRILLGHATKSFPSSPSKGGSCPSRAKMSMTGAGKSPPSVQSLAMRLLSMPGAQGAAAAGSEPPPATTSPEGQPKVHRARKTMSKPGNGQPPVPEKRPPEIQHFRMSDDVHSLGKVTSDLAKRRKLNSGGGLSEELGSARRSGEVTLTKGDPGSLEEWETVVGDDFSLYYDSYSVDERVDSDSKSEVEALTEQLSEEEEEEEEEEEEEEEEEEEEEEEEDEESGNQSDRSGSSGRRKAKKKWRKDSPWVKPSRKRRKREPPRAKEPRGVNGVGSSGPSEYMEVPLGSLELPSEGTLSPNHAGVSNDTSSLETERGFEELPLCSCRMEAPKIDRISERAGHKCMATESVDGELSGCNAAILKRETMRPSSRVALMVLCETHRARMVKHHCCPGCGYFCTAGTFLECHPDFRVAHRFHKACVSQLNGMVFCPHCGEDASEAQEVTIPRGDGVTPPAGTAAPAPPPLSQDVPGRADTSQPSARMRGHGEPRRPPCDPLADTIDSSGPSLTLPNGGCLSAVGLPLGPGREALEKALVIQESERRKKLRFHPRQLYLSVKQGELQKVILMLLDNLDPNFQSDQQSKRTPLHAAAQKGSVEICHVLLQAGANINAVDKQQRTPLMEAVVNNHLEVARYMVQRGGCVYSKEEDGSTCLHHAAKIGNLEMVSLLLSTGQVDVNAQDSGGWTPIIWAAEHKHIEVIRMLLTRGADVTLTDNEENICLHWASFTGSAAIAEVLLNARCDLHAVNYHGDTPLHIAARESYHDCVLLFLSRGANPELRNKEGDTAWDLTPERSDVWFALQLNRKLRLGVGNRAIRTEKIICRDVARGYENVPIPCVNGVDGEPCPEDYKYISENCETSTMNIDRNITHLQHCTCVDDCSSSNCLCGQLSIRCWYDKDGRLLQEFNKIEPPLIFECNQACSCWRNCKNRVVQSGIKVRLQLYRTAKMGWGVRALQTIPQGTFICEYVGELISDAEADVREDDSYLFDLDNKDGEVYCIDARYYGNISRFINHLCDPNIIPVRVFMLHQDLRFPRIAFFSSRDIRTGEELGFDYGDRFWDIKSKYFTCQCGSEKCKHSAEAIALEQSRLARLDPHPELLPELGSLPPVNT

Assays:
[1] = target: Sp1 (human (endogenous in RD18, RD and HSMM)) (UniProt P08047); assay: proximity ligation; Duolink in situ fluorescence PLA on endogenous proteins in cells (RD18, RD, HSMM), control (DMSO) and 2.5 uM UNC0642-treated; dots per nuclei counted by confocal microscopy
[2] = target: p300 (human (endogenous in RD18, RD and HSMM)) (UniProt Q09472); assay: as above

binding [1]: binds | binding [2]: binds
Substance: EHMT2 (from UniProt Q96KQ7 1-1210)
